# Literature values in patent US11090267B2, “Rapidly degrading embolic particles with therapeutic agent release” (priority 2014, dated 2021).
# Conditions: cited from earlier work
smiles,measurement,value
"CC(=O)O[C@H]1C(=O)[C@@]2(C)[C@H]([C@H](OC(=O)c3ccccc3)[C@]3(O)C[C@H](OC(=O)[C@H](O)[C@@H](NC(=O)c4ccccc4)c4ccccc4)C(C)=C1C3(C)C)[C@]1(OC(C)=O)CO[C@@H]1C[C@@H]2O [Crystalline dihydrate paclitaxel, paclitaxel]",aqueous solubility,< 1000 µg/mL
